Values from PubChem BioAssay AID1159578 (Peter MacCallum Cancer Centre, 2015).

Test: 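Genome-wide hunt for genes controlling movement of lymphatic endothelial cells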 (primary screen)
Cells: human lymphatic endothelial cells
Reagent: siRNA pool against human genes, 40 nM
Duration: 48 h after transfection
Read-out: 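Cells stained with dye and imaged after a scratch; covered wound area and nuclei counted, duplicates averaged, migration set against mock wells and turned into a robust z-score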
Scale: migration robust z-score: higher = faster migration into the scratch; migration relative to mock: higher = more scratch area covered than mock; nuclei per well: higher = more cells in the well
Rule for the call: 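Pools averaging fewer than 3300 nuclei are never called; remaining pools count as changed when migration robust z lies outside -2 to 2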
Meaning of the calls: active = migration changed; inactive = no migration change, or too few cells
Shown is an unselected part of about 18,000 deposited reagents. About 1,030 of them (5.7%) count as active. 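Inactive calls also include pools with fewer than 3300 nuclei, whose migration was not assessed.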 The raw values are shown without normalisation. Unmarked entries are inactive.

gene | migration robust z-score | migration class with cell-count check | migration relative to mock | nuclei per well, duplicate mean
EXOC6 | -1.34 | migration z between -2 and 2; enough cells | 0.53 | 6398
ZBTB18 | 1.06 | migration z between -2 and 2; enough cells | 1.01 | 6820
ZNF200 | 0.77 | migration z between -2 and 2; enough cells | 1.08 | 4246
RSPH9 | 2.69 (active) | migration z above 2; enough cells | 1.58 | 6385
KRTAP19-7 | -0.55 | migration z between -2 and 2; enough cells | 0.74 | 5502
AGFG1 | -1.24 | migration z between -2 and 2; enough cells | 0.56 | 3781
NTPCR | 0.42 | migration z between -2 and 2; enough cells | 1 | 5496
KRT40 | -0.79 | under 3300 nuclei; migration not judged | 0.68 | 3182
KRT18P55 | -0.9 | migration z between -2 and 2; enough cells | 0.64 | 5738
DTD1 | 2.67 (active) | migration z above 2; enough cells | 1.58 | 6714
TMEM100 | -0.77 | migration z between -2 and 2; enough cells | 0.68 | 4975
MEGF6 | 0.96 | migration z between -2 and 2; enough cells | 1.13 | 4810
VN1R4 | -0.42 | migration z between -2 and 2; enough cells | 0.73 | 6812
CSGALNACT1 | -4.8 (active) | migration z below -2; enough cells | -0.12 | 3537
FILIP1 | -0.45 | migration z between -2 and 2; enough cells | 0.77 | 5150
OR1F1 | -1.62 | migration z between -2 and 2; enough cells | 0.46 | 4792
LTBP2 | -0.57 | migration z between -2 and 2; enough cells | 0.74 | 4670
USP1 | -2.05 (active) | migration z below -2; enough cells | 0.41 | 4967
R3HDML | -0.51 | migration z between -2 and 2; enough cells | 0.76 | 4528
OR5M3 | 0.3 | migration z between -2 and 2; enough cells | 0.97 | 5630
PPP1R2 | 0.9 | migration z between -2 and 2; enough cells | 0.98 | 6117
CALHM1 | 1.55 | migration z between -2 and 2; enough cells | 1.29 | 5180
TMEM176A | -0.41 | migration z between -2 and 2; enough cells | 0.77 | 7214
ACKR2 | -0.34 | migration z between -2 and 2; enough cells | 0.74 | 5442
MCL1 | -5.61 | under 3300 nuclei; migration not judged | -0.28 | 2366
GRM1 | -0.1 | migration z between -2 and 2; enough cells | 0.78 | 6219
TRIM51G | -3.06 (active) | migration z below -2; enough cells | 0.22 | 4336
AIMP1 | -0.21 | migration z between -2 and 2; enough cells | 0.83 | 4814
TRAPPC4 | -0.31 | migration z between -2 and 2; enough cells | 0.8 | 5607
MRPL37 | -0.2 | migration z between -2 and 2; enough cells | 0.83 | 4520

The list goes on, starting with the last 9 of the part before.
gene | migration robust z-score | migration class with cell-count check | migration relative to mock | nuclei per well, duplicate mean
CALHM1 | 1.55 | migration z between -2 and 2; enough cells | 1.29 | 5180
TMEM176A | -0.41 | migration z between -2 and 2; enough cells | 0.77 | 7214
ACKR2 | -0.34 | migration z between -2 and 2; enough cells | 0.74 | 5442
MCL1 | -5.61 | under 3300 nuclei; migration not judged | -0.28 | 2366
GRM1 | -0.1 | migration z between -2 and 2; enough cells | 0.78 | 6219
TRIM51G | -3.06 (active) | migration z below -2; enough cells | 0.22 | 4336
AIMP1 | -0.21 | migration z between -2 and 2; enough cells | 0.83 | 4814
TRAPPC4 | -0.31 | migration z between -2 and 2; enough cells | 0.8 | 5607
MRPL37 | -0.2 | migration z between -2 and 2; enough cells | 0.83 | 4520
SFI1 | 0.22 | migration z between -2 and 2; enough cells | 0.94 | 5438
USP9Y | 1.71 | migration z between -2 and 2; enough cells | 1.13 | 6416
INPPL1 | -0.34 | migration z between -2 and 2; enough cells | 0.74 | 5756
UBXN10 | -0.54 | migration z between -2 and 2; enough cells | 0.74 | 5799
MYOZ2 | 1.35 | migration z between -2 and 2; enough cells | 1.23 | 5296
ALDH18A1 | -0.05 | migration z between -2 and 2; enough cells | 0.8 | 4582
CASQ1 | 1.36 | migration z between -2 and 2; enough cells | 1.23 | 5990
GNG2 | 0.19 | migration z between -2 and 2; enough cells | 0.93 | 6037
MDFIC | -1.19 | migration z between -2 and 2; enough cells | 0.57 | 6136
BUD31 | -0.4 | migration z between -2 and 2; enough cells | 0.78 | 6340
H2AZ1 | -1.1 | migration z between -2 and 2; enough cells | 0.6 | 4464
WDHD1 | -1.5 | migration z between -2 and 2; enough cells | 0.5 | 5190
MPHOSPH9 | -0.98 | migration z between -2 and 2; enough cells | 0.63 | 7007
CCR5 | -0.99 | migration z between -2 and 2; enough cells | 0.62 | 5034
TNFRSF9 | 0.96 | migration z between -2 and 2; enough cells | 0.99 | 4200
SOX7 | 1.75 | migration z between -2 and 2; enough cells | 1.34 | 6344
GNAO1 | -0.19 | migration z between -2 and 2; enough cells | 0.84 | 6492
MT1F | 1.02 | migration z between -2 and 2; enough cells | 1.15 | 5679
TIGD3 | -0.67 | migration z between -2 and 2; enough cells | 0.71 | 5402
KLHL21 | 1.56 | migration z between -2 and 2; enough cells | 1.28 | 5642
TOR1B | 0.16 | migration z between -2 and 2; enough cells | 0.93 | 4652
C1orf159 | -0.4 | migration z between -2 and 2; enough cells | 0.78 | 6950
XPO1 | 0.57 | migration z between -2 and 2; enough cells | 0.92 | 5368
NKX3-1 | 1.19 | migration z between -2 and 2; enough cells | 1.04 | 5565
RPGRIP1 | -0.18 | under 3300 nuclei; migration not judged | 0.84 | 3120
NRCAM | 0.04 | migration z between -2 and 2; enough cells | 0.89 | 6925
LGALS9 | 0.39 | migration z between -2 and 2; enough cells | 0.88 | 4818
CSF3 | -0.62 | migration z between -2 and 2; enough cells | 0.68 | 6388
SENP2 | 0.02 | migration z between -2 and 2; enough cells | 0.81 | 5443
RBMS2 | -0.6 | migration z between -2 and 2; enough cells | 0.74 | 5347
PNMA8B | -1.23 | migration z between -2 and 2; enough cells | 0.56 | 5278
AZGP1 | -1.14 | migration z between -2 and 2; enough cells | 0.6 | 5368
CHGB | 0.12 | migration z between -2 and 2; enough cells | 0.92 | 5634
HOXC6 | 0.28 | migration z between -2 and 2; enough cells | 0.86 | 6056
CFAP161 | 0.78 | migration z between -2 and 2; enough cells | 1.08 | 5142
TBXAS1 | 0.52 | migration z between -2 and 2; enough cells | 0.9 | 6250
RTP3 | -0.82 | migration z between -2 and 2; enough cells | 0.67 | 5586
RASA4 | 1.5 | migration z between -2 and 2; enough cells | 1.09 | 6570
ADIPOQ | 0.41 | migration z between -2 and 2; enough cells | 0.99 | 5525
FZR1 | 1.28 | migration z between -2 and 2; enough cells | 1.21 | 5496
C1QBP | 0.38 | migration z between -2 and 2; enough cells | 0.98 | 5688
GCLM | 0.13 | migration z between -2 and 2; enough cells | 0.83 | 6656
SENP1 | 1.17 | migration z between -2 and 2; enough cells | 1.03 | 5465
